# Measured values published in PubChem BioAssay AID493014 (National Center for Advancing Translational Sciences (NCATS), 2011).
# Values joined by “and” are separate entries in the source; they are usually repeats but may differ in a detail not shown here. Identical values can stand only once. Out of some 340,000 compounds screened, about 170 (0.05%) were called active. This list was built around the results that the source calls inconclusive (neither active nor inactive); the mix of calls is not that of the screen. The call rests on the fitted dose curve; in most records, active means well fitted inhibition curve with a large enough effect in the signal ratio, with a control signal flat (not every such curve was filed as active); inconclusive means small, poorly fitted or top-dose-only effect, or effect the other way, or a change in a side signal; inactive means flat fitted curve, though single readings scatter; the % refers to the signal ratio. Where the call is inconclusive, the potency comes from a doubtful curve fit. Peptide text beside a SMILES is read from it. * marks the point of attachment. Cbz = O=C(OCc1ccccc1)*
# Experiment: qHTS Assay to Find Inhibitors of Chronic Active B-Cell Receptor Signaling;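 on activity change, negative = inhibition: plate controls were basal doxycycline-induced cells for no effect and cells given 10 µM MG132 for full effect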
# Details: ABC-DLBCL IkBa-CBG/CBR reporter, luminescence ratio (green luciferase fused to IkBa over red control in TMD8 lymphoma cells), 4 h; activity change, negative = inhibition: at 46.1 µM (top of the series)
# Method in brief: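 Doxycycline induced both beetle luciferases in TMD8 lymphoma cells; IKK-driven degradation limits the IkappaBalpha-fused green signal, while red luminescence normalises for cell number and nonspecific effects. Compounds tested up to 46 uM, 4 hrs.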
# Potency means the concentration at half of the fitted maximal effect.
Compound,"activity change, negative = inhibition",Potency
O=C(C1=NNC2C(=O)N(c3ccccc3)C(=O)C12)c1nc(Cl)ccc1Cl (stereo not given),inconclusive: -13.6%,–
O=C(CC1OC(=O)c2ccccc21)Nc1ccc(Cl)c(S(=O)(=O)N2CCCCC2)c1 (stereo not given),inactive: 0.123%,–
COc1cccc(C2N(c3cccc(Cl)c3)C(=O)C3CCCN32)c1OC (stereo not given),inconclusive: 4.03%,–
CC(=O)Nc1sc(C)c(C)c1C(=O)OCCOc1ccccc1,–,"inconclusive: 5.01 µM [rising, full curve, poor fit]"
CCOC(=O)c1sc(NC(C)=O)cc1C,inconclusive: 2.96%,–
CCn1c(/C=C/c2ccc(O)c(O)c2)nc2ccccc2c1=O,–,"inconclusive: 17.8 µM [falling, partial curve, poor fit]"
O=S(=O)(/N=C/c1c(O)ccc2ccccc12)c1cccs1,–,"inconclusive: 18.4 µM [falling, single point]"
CCNc1nc(Sc2ccc(C)cc2)cc(C(F)(F)F)n1,–,"inconclusive: 35.5 µM [rising, partial curve, poor fit]"
COc1ccc(-n2nc([N+](=O)[O-])c(=NC3CCN(Cc4ccccc4)CC3)n2O)cc1,inactive: 3.59%,–
Cc1ccc(NC(=O)CCOc2ccccc2)cc1,inconclusive: -6.42% and inconclusive: 7.31%,–
CCn1c(=O)cc(OCC(=O)NCc2cccnc2)c2ccccc21,inconclusive: -0.0165%,–
CC(C)Cc1ccc(S(=O)(=O)N2CCC(c3ccncc3)CC2)cc1,inactive: 0.254%,–
COc1ccc(OC)c(S(=O)(=O)N2CCC(C(=O)NCc3ccccn3)CC2)c1,inactive: -2.46%,–
CN(C)c1ccc(-n2cc3c(=O)n(C)c(=O)n(C)c3c2)cc1,inactive: -0.0501%,–
C=CCOC(=O)c1[nH]c2c(c1C)C(=O)CC(c1cc(OC)c(OC)c(OC)c1)C2 (stereo not given),inconclusive: 0.0296%,–
CN(C)S(=O)(=O)c1cccc(NC(=S)N/N=C/c2cccc(O)c2)c1,–,"inconclusive: 7.08 µM [falling, partial curve]"
Cn1c(N)c(C(=O)COC(=O)c2ccccc2C(=O)c2ccc(Cl)c([N+](=O)[O-])c2)c(=O)n(C)c1=O,inconclusive: -0.101%,–
C=CCSc1nnc(Cn2c(=O)sc3ccccc32)n1C,inconclusive: 17.6%,–
O=C(c1ccc(F)cc1)c1cc2ccc(O)cc2oc1=O,inconclusive: -16.5%,–
Cc1ccc(NC(=O)Nc2c(Cl)cccc2Cl)cn1,inconclusive: -1.47%,–
COCCn1c(C)cc(/C=N/NC(=O)c2cc3ccccc3cc2O)c1C,inconclusive: 4.75%,–
COC(=O)c1ccc(C(c2c(C)n(C)n(-c3ccccc3)c2=O)c2c(C)n(C)n(-c3ccccc3)c2=O)cc1,inactive: -0.593%,–
O=C(CS(=O)(=O)Cc1ccccc1)Nc1nc2ccccc2s1,inconclusive: 12.4%,–
COC(=O)c1cc(Br)c(=O)n(-c2ccccc2F)c1,inconclusive: -0.904%,–
Cc1cc(N2CCN(C)CC2)nc2ccc(NC(=S)N3CCOCC3)cc12,–,"inconclusive: 11.2 µM [falling, single point]"
COc1ccc(/C=N/NC(=O)CCc2c(C)n[nH]c2C)cc1O,–,"inconclusive: 20.6 µM [falling, partial curve, poor fit]"
O=C(Cc1ccccc1)NCC(=O)N1CCCCCC1,–,"inconclusive: 29.1 µM [falling, single point]"

Compound,"activity change, negative = inhibition",Potency
CN1C(=O)/C(=C/c2cn(CC(=O)NCc3ccco3)c3ccccc23)NC1=S,–,"inconclusive: 2.82 µM [rising, full curve]"
O=C(Nc1ncccc1O)c1ccc(NS(=O)(=O)c2ccc3[nH]c(=O)[nH]c3c2)cc1,inconclusive: -7.24%,–
CC(OC(=O)c1cccc(S(=O)(=O)N2CCOCC2)c1)C(=O)NC1CCCCC1C (stereo not given),inconclusive: 3.61%,–
COc1ccc(/C(C)=N\NC(=O)c2ccc3c(c2)OCO3)cc1OC,–,"inconclusive: 14.1 µM [falling, partial curve]"
CC(=O)Nc1ccc(NC(=O)Nc2ccccc2)cc1,inconclusive: -18.6%,–
Cc1cc(C(F)(F)F)c(C#N)c(SCC(=O)Nc2nc3ccccc3s2)n1,–,"inconclusive: 16.4 µM [falling, partial curve]"
CCN(CC(=O)Nc1cc(Cl)ccc1C)C(=O)c1nc2nc(C)cc(C)n2n1,inconclusive: 2.16%,–
CCn1c(=O)c2sccc2n2c(CCCC(=O)NCCc3ccc(S(N)(=O)=O)cc3)nnc12,inconclusive: -0.599%,–
CN(C)c1ccc(NC(=O)Nc2csc3ccccc23)cc1,–,"inconclusive: 25.1 µM [falling, partial curve]"
COc1ccc(N2CCN(C(=O)Cc3ccc(Br)cc3)CC2)cc1,inconclusive: -0.205%,–
O=C(NC1CCCCC1)c1n[nH]c2c1CCCCC2,–,"inconclusive: 2.06 µM [rising, full curve, poor fit]"
CCN(CC)S(=O)(=O)c1cccc(C(=O)N[C@H](C(=O)NC2=NCCS2)C(C)C)c1,inconclusive: -2.58%,–
CC(=O)c1c(C)[nH]c(C(=O)OCCOc2ccccc2)c1C,–,"inconclusive: 35.5 µM [falling, single point]"
CC1CCN(S(=O)(=O)c2ccc3ccccc3c2)CC1,inconclusive: 4.68%,–
O=C(Nn1c(C2CCCCC2)nc2ccccc2c1=O)c1ccc(Cl)c([N+](=O)[O-])c1,inconclusive: 6.73%,–
Cc1cccc(NC(=O)Nc2ccc(F)cc2)n1,inconclusive: 5.67%,–
C=CCn1c(SCc2ccc(C(=O)Nc3nccs3)cc2)nnc1-c1ccc(C)c(Cl)c1,–,"inconclusive: 8.2 µM [rising, partial curve]"
Cc1nc2cc(C(=O)O)ccc2s1,inconclusive: 6.36%,–
O=C(O)Cc1sc(Nc2cccc3ccccc23)nc1-c1ccccc1,–,"inconclusive: 14.6 µM [falling, partial curve, poor fit]"
N#Cc1c(NC(=O)C2CC=CCC2C(=O)O)sc2c1CCCCCC2 (stereo not given),inactive: 9.11%,–
CC1CCC(NC(=O)c2cc(S(=O)(=O)N3CCCCC3)c[nH]2)CC1 (stereo not given),–,"inconclusive: 12.6 µM [falling, single point]"
COc1ccc(C(=O)Nc2ccccc2N2CCCCC2)cc1[N+](=O)[O-],inactive: 12.8%,–
COc1ccc(NC(=O)C(C)N(c2ccc(C)cc2)S(C)(=O)=O)cc1 (stereo not given),inconclusive: -5.26%,–
CC(=O)Oc1ccc(-c2csnn2)cc1,inactive: -14.3%,–
Cc1cc(C)cc(N(CCC(=O)O)S(=O)(=O)c2ccc3ccccc3c2)c1,inactive: 2.44%,–
COc1cccc(CC2(CO)CCCN(Cc3ccc(OC)c(C)c3OC)C2)c1 (stereo not given),inactive: -6.6%,–
COc1cc(C(=O)NNc2nc3cc4c(cc3s2)OCO4)cc(OC)c1OC,inactive: 1.23%,–

Compound,"activity change, negative = inhibition",Potency
O=C(Cn1nnc2ccccc21)NC1CCCCC1,inconclusive: 9.93%,–
O=C(CSc1n[nH]c(=O)[nH]c1=O)Nc1ccc(Br)cc1Br,inactive: 3.98%,–
N#CCSc1nnc(-c2ccccc2O)n1CCc1ccccc1,inconclusive: 12.6%,–
O=C(NC1CCCCC1)C(c1ccccc1)N1CCCC1 (stereo not given),–,"inconclusive: 4.11 µM [rising, full curve, poor fit]"
Cc1ccccc1OCC(=O)N/N=C/c1cccn1C,inactive: -7.89%,–
O=C(CN1CCN(CC(=O)Nc2ccc(-c3ccccc3)cc2)CC1)Nc1ccc(F)cc1,inconclusive: -11.7%,–
CC(NC(=O)Cn1nc(C(=O)O)c2ccccc2c1=O)c1ccccc1 (stereo not given),inactive: 3.15%,–
CN(Cc1ccccc1F)Cc1cc(=O)oc2cc(O)c(Cl)cc12,–,"inconclusive: 2.24 µM [rising, partial curve, poor fit]"
O=C(CCN1C(=O)/C(=C/c2ccccc2F)SC1=S)Nc1ccccn1,inactive: -5.41%,–
COc1cc(Br)cc2cc(C(=O)N3CCN(c4ccccn4)CC3)c(=O)oc12,inconclusive: 18.7%,–
COC(=O)C(CO)NC(=O)C(C)NC(=O)CNC(=O)OCc1ccccc1 (stereo not drawn) (Cbz-Gly-Ala-Ser-OMe; configuration not given here),inconclusive: 19.4%,–
CC(C)CN(CC(C)C)C(=O)CS(=O)(=O)Cc1ccccc1,inconclusive: 0.711%,–
COc1ccc(S(=O)(=O)N2CCCCC2)cc1NC(=O)C1COc2ccccc2O1 (stereo not given),inactive: 20.1%,–
O=c1[nH]c(CN2CCN(c3ccccc3)CC2)nc2ccccc12,inconclusive: 8.07%,–
CCOC(=O)c1cnn(-c2ccc(C(=O)Nc3ccc(OC(F)(F)F)cc3)cc2)c1N,inconclusive: 5.32%,–
Cc1cc(NCCCN2CCOCC2)n2nc(C)c(-c3ccccc3)c2n1,inactive: 1.18%,–
O=C(Nc1ccc(Br)cc1)Nc1cnccn1,inconclusive: 5.46%,–
C=CCn1c(SCC(=O)O)nnc1-c1ccc(C(C)(C)C)cc1,–,"inconclusive: 31.6 µM [falling, partial curve, poor fit]"
CCN1CCN(c2cc(C)c3cc(NC(=S)N4CCCC(C)C4)ccc3n2)CC1 (stereo not given),–,"inconclusive: 20 µM [falling, partial curve, poor fit]"
CCc1cc2c(-c3ccccc3)cc(=O)oc2cc1OCC(=O)NCC1CCC(C(=O)O)CC1 (stereo not given),–,"inconclusive: 35.5 µM [falling, single point]"
Oc1ccc(F)c2cccnc12,inactive: -25.3%,–
O=C(NCCc1ccccc1)c1ccccc1Cl,–,"inconclusive: 20 µM [falling, partial curve, poor fit]"
CC1CCc2nn(CC(=O)NC3CCCC(C)C3C)cc2C1 (stereo not given),inconclusive: 0.297%,–
Nc1ccc(N2CCN(c3ccccc3)CC2)c(F)c1,inconclusive: 15.1%,–
CCCCCSc1ncccc1C(=O)O,inconclusive: 19%,–
COc1cccc(NC(=S)N(CCc2ccc(OC)c(OC)c2)Cc2ccccn2)c1,inconclusive: -0.645%,–
